Test results published in PubChem BioAssay AID250 (DTP/NCI, 2004).
“And” between values parts separate entries of the source, which are not always exact repeats. Identical values can stand only once. Inconclusive results and toxic doses are left out. The calls were made as follows: active = survival T/C of 150% or more; inactive = T/C below 125% in these data.

Test system: BDF1 mice, L1210 leukemia sc, survival T/C
Test: NCI In Vivo Anticancer Drug Screen. Data for tumor model L1210 Leukemia (subcutaneous) in B6D2F1 (BDF1) mice
Details: endpoint: median survival time, vehicle: water, higher = longer survival
Protocol: The antitumor activity of compounds was measured in mice bearing transplantable tumors. Survival or tumor size were measured and the results are expressed as the measurement made in the treated group (T) divided by the measurement made in the vehicle treated control group (C). The tumor model used in this assay is L1210 Leukemia (subcutaneous) in B6D2F1 (BDF1) mice

Measured: T/C

COc1cc2c(c(OC)c1OC)-c1ccc(OC)c(=O)cc1[C@@H](N)CC2
inactive: dose: 0.6 mg/kg/injection, schedule: Q01DX009 (ip) 101 % of control | dose: 0.6 mg/kg/injection, schedule: Q01DX009 (sc) 101 % of control | dose: 1.25 mg/kg/injection, schedule: Q01DX009 (ip) 106 % of control | dose: 1.25 mg/kg/injection, schedule: Q01DX009 (sc) 106 % of control and 121 % of control | dose: 2.5 mg/kg/injection, schedule: Q01DX009 (ip) 107 % of control | dose: 2.5 mg/kg/injection, schedule: Q01DX009 (sc) 104 % of control and 108 % of control | dose: 10.0 mg/kg/injection, schedule: Q01DX009 (sc) 101 % of control | dose: 20.0 mg/kg/injection, schedule: Q01DX009 (sc) 102 % of control | dose: 40.0 mg/kg/injection, schedule: Q01DX009 (sc) 108 % of control
